No constants are given. Whether binding was seen depends on the method and setting. Some binding calls cover weakened binding; strength is not graded here.

By UniProt entry, the sequences of proteins in these tests, tags left out.
UniProt Q6A548: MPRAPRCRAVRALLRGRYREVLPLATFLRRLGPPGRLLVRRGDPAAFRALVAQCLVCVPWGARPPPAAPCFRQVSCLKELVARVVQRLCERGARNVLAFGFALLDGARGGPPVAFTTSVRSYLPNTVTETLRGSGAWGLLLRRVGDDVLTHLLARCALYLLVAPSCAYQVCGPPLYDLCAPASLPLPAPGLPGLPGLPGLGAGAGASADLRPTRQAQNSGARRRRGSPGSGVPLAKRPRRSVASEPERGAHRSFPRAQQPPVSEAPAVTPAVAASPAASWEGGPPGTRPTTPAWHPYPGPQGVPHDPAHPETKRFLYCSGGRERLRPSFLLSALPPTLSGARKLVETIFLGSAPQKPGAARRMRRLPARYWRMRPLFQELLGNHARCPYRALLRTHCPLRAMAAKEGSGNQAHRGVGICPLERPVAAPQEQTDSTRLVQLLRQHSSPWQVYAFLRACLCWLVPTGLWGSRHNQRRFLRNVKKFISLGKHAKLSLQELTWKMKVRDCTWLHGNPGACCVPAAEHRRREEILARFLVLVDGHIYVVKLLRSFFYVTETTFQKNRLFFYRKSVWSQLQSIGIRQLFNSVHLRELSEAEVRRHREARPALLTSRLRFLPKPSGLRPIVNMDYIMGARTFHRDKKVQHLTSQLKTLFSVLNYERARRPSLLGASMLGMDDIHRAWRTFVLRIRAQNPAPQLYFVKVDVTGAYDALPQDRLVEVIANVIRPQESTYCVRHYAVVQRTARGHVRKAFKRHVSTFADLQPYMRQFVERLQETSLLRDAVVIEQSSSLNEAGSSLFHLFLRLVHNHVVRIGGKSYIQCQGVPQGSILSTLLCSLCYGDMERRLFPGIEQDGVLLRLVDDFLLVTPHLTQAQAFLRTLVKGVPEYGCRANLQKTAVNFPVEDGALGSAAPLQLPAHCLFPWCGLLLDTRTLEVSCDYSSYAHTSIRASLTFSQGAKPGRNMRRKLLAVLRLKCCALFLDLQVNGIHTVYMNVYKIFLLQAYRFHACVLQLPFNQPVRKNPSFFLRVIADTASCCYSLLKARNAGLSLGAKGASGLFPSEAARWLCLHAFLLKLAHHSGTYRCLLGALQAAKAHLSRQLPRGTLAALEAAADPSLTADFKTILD
UniProt A0A8I3S186: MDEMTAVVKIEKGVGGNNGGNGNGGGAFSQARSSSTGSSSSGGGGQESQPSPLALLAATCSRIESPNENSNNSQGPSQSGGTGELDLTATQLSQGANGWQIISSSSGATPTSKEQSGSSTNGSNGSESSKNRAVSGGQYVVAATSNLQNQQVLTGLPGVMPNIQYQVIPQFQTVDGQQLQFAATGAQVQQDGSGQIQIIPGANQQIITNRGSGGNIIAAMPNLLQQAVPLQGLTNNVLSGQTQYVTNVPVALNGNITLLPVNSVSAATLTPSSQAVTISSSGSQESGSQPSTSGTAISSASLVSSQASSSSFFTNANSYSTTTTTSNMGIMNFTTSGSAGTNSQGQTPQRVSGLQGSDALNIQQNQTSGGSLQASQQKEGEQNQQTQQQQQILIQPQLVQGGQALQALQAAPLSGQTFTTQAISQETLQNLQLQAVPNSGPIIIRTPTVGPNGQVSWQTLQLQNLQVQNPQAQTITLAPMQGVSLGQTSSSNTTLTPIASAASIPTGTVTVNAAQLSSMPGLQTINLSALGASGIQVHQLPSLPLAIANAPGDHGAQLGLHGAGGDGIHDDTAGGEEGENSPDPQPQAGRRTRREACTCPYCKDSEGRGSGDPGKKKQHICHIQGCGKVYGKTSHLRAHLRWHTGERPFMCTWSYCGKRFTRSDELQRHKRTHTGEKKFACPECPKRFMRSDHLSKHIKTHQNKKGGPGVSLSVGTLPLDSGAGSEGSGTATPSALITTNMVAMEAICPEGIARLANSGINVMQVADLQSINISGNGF
UniProt Q29537: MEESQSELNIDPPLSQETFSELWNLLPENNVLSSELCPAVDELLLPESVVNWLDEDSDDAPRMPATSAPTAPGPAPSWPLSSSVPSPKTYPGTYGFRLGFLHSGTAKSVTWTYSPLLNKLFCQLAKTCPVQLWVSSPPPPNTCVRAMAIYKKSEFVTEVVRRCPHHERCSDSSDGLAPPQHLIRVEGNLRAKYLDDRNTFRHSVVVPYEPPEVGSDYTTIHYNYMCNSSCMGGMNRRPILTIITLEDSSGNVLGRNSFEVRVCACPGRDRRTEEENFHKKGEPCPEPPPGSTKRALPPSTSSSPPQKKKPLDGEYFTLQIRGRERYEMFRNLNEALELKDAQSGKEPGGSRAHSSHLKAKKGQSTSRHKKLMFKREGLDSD

The target in assay [1] is Telomerase reverse transcriptase (dog (endogenous in canine lens epithelial cells)) (UniProt Q6A548). The assay can be described thus: TF-TF interaction array (TranSignal, Panomics); nuclear extract of canine anterior lens capsules (cataractous; normal too) incubated with biotin-labelled cis-element probes, immunoprecipitation with anti-TERT, eluted cis-elements hybridised to the array membrane.

For assay [2] the target is unchanged. The assay can be described thus: TF-TF interaction array (TranSignal, Panomics); nuclear extract of normal canine anterior lens capsules incubated with biotin-labelled cis-element probes, immunoprecipitation with anti-TERT, eluted cis-elements hybridised to the array membrane.

With Sp1 (from UniProt A0A8I3S186 1-778), the binding result in assay [1] was “binds”.

With p53 (from UniProt Q29537 1-381), the binding entry in assay [1] is given as “binds”; in assay [2], “no binding (condition: in normal LEC samples)”.

Values taken from paper PMC2776345.
